Laboratory results published in PMC9581534.
These are yes or no findings as the source states them, for the method shown. In cells and extracts the contact can be indirect. Some entries that bind do so weakly or less than the wild type.

The chains behind the UniProt entries cited, without tags or fusion partners. Where a name states a change or a piece, a line headed by the entry shows the natural chain unless it says otherwise. A line that says so, or that is headed by a name, gives the form on record, which may keep a tag or linker.
CD44 standard form (CD44s), endogenous in MDA-MB-231 cells (human (endogenous in MDA-MB-231)) (P16070, form named): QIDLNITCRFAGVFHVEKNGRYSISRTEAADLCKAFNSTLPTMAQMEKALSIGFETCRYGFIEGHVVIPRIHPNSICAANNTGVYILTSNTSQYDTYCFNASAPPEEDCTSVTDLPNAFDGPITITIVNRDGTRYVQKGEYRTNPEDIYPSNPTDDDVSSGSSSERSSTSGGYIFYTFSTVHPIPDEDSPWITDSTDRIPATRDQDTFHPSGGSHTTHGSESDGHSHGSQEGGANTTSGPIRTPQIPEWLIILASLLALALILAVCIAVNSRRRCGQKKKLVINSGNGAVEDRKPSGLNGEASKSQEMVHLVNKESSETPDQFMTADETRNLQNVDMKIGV

Target: CD44 standard form (CD44s), endogenous in MDA-MB-231 cells (human (endogenous in MDA-MB-231)) (UniProt P16070)
Experiment: co-IP; endogenous proteins; lysate precleared with Protein A/B PLUS agarose beads, 100 µg lysate incubated with CD44 antibody overnight, then beads overnight; membrane fraction of MDA-MB-231, total lysate of TN1 PDX cells; immunoblot for CD44 and CD81; CD44KO cells as control

binding: binds
B1: CD81, endogenous in MDA-MB-231 and TN1 PDX cells (protein, UniProt P60033 1-236)
chain: MGVEGCTKCIKYLLFVFNFVFWLAGGVILGVALWLRHDPQTTNLLYLELGDKPAPNTFYVGIYILIAVGAVMMFVGFLGCYGAIQESQCLLGTFFTCLVILFACEVAAGIWGFVNKDQIAKDVKQFYDQALQQAVVDDDANNAKAVVKTFHETLDCCGSSTLTALTTSVLKNNLCPSGSNIISNLFKEDCHQKIDDLFSGKLYLIGIAAIVVAVIMIFEMILSMVLCCGIRNSSVY
